Seven molecules from US7514534 can be followed below.

Chains of the proteins cited; added tags and fusions are not shown. Lines headed by an entry give the natural chain unless they say otherwise; changes in a name come on top. Residues count along the entry.
UniProt Q9NRE1: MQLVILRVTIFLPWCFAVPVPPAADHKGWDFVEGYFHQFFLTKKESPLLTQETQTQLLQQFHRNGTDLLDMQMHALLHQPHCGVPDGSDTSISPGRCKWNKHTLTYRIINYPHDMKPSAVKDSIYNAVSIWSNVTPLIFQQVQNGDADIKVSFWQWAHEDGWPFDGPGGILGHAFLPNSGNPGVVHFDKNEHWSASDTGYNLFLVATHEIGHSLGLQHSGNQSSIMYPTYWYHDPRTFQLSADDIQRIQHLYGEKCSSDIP
UniProt P08254, residues 100-477: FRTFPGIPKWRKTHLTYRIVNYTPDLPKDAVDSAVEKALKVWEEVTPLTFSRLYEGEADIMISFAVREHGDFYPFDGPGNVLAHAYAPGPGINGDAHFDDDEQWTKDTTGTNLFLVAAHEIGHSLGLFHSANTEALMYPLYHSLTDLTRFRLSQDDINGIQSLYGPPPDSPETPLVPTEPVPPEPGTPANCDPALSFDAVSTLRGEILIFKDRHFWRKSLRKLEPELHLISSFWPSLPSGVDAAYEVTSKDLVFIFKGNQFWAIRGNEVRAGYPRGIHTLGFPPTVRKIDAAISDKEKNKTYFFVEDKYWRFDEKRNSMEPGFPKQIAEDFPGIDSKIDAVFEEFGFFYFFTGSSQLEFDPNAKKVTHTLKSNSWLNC
UniProt P14780, residues 107-707: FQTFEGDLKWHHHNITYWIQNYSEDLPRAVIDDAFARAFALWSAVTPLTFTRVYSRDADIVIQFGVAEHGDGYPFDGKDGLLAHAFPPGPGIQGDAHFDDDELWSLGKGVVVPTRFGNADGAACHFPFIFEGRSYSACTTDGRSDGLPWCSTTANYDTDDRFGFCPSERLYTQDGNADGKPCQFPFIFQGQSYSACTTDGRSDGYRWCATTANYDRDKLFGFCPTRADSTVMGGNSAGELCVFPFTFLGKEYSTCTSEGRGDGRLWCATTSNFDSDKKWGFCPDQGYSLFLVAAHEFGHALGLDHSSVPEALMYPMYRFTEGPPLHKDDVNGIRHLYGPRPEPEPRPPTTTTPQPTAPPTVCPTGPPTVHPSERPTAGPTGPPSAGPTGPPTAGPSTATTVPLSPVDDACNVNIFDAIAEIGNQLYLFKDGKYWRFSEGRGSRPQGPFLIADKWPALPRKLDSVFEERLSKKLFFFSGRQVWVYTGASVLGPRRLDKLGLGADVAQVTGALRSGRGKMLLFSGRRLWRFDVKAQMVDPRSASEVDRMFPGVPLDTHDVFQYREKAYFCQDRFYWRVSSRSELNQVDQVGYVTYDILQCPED

No constants are given. Whether binding was seen depends on the method and setting. Some binding calls cover weakened binding; strength is not graded here.

Holding throughout (experiment): MMP cross reactivity ELISA, IgG4 at 2 µg/ml
(In an ELISA, binding on a coated surface is turned into a signal by an enzyme label.)

For test [1], the target named is MMP-26 catalytic domain, tagged with hexa-histidine (human) (UniProt Q9NRE1).
Test [2] concerns the target MMP-3 (UniProt P08254).
The target of test [3] is MMP-9 (UniProt P14780).

B1: C12 (antibody, V domains shown)
VH: EVQLLESGGGLVQPGGSLRLSCAASGFTFSAYNMMWVRQAPGKGLEWVSRIYPSGGYTLYADSVKGRFTISRDNSKNTLYLQMNSLRAEDTAVYYCARQKLMIRAVRPFDYWGQGTLVTVSS
VL: QSELTQPPSVSVSPAQTASITCSGDKLGDKYACWYQQKPGQSPVLVIYEDTKRPSGIPERFSGSNSGNTATLTISGTQVMDEADYYCQVWDSSTAVFGGGTKLTVLG
For the molecule B1, the binding result in test [1] and in test [2] was “binds” throughout.

B2: B10 (antibody, human IgG4, V domains shown)
VH: EVQLLESGGGLVQPGGSLRLSCAASGFTFSSYAMMWVRQAPGKGLEWVSWIVPSGGTTFYADSVKGRFTISRDNSKNTLYLQMNSLRAEDTAVYYCARGLYRWGQGTLVTVSSASTKGPSVFP
VL: DIQMTQSPSSLSASVGDRVTIACRTSQNVNRYLNWYQHKLGQAPKLLIYGATILQSGVPSRFRGSGSGTDFILTITNLQPEDFAVYYCQQTYSPPLTFGQGTKAEFKGTVAAPSV
For B2, the binding entry in test [1] and in test [2] was “binds” each time.

B3: D07 (antibody, human IgG4, V domains shown)
VH: EVQLLESGGGLVQPGGSLRLSCAASGFTFSEYNMFWVRQAPGKGLEWVSYIYSSGGSTDYADSVKGRFTISRDNSKNTLYLQMNSLRAEDTAVYYCARVGIAARPFDPWGQGTLVTVSS
VL: QSELTQPASVSGSPGQSITISCTGTNSDIGGYNYVSWYQQHPGKVPKLLIFEVNNRPSGVSSRFSGSKSGDTASLTISGLQPEDEAVYYCGSFTVSVTYVFGTGTKVTVLG
With B3, the binding entry in test [1] is listed as “binds”.

B4: D6-orig (antibody, human IgG4, V domains shown)
VH: EVQLLESGGGLVQPGGSLRLSCAASGFTFSMYSMRWVRQAPGKGLEWVSSIYPSGGSTEYADSVKGRFTISRDNSKNTLYLQMNSLRAEDTAVYYCAREGGENDYWGQGTLVTVSS
VL: DIQMTQSPLSLSASVGDRVAITCRASQSIDTYLNWYQQKPGKAPKLLIYAASKLEDGVPSRFSGSGTGTDFTLTIRSLQPEDFASYFCQQSYSSPGITFGPGTKVEIKR
B4: the binding result in test [1] and in test [3] was “binds” in each case.

B5: C02 (antibody, human IgG4, V domains shown)
VH: EVQLLESGGGLVQPGGSLRLSCAASGFTFSHYSMRWVRQAPGKGLEWVSYIVPSGGFTQYADSVKGRFTISRDNSKNTLYLQMNSLRAEDTAVYYCARGTHLPGVDYWGQGTLVTVSS
VL: DIQMTQSPSSLSASVGDRVTITCRASQTISTYLVWYQQKPEKAPTLLISGASTLQSGVPNRFRGSGSGTDFTLAISSLQPEDFATYYCQQSYTSPRTFGQGTKVEIKR
Regarding B5, the binding result in test [2] and in test [3] was “binds” throughout.

B6: D08 (antibody, human IgG4, V domains shown)
VH: EVQLLESGGGLVQPGGSLRLSCAASGFTFSFYAMWWVRQAPGKGLEWVSRIYSSGGKTWYADSVKGRFTISRDNSKNTLYLQMNSLRAEDTAVYYCARVGMSTYAFDIWGQGTMVTVSS
VL: DIQMTQSPSSLSASVGDRVTITCRASQSISDYLNWYQQKPGKAPDLLIYAASSLQSGVPSRFSGSGSGTDFTLTVSSLQPEDFATYFCQQSYSIPLTFGGGTKVEITR
Turning to B6, the binding result in test [1] is recorded as “binds”.

B7: A1-orig (antibody, human IgG4, V domains shown)
VH: EVQLLESGGGLVQPGGSLRLSCAASGFTFSYYRMSWVRQAPGKGLEWVSSIGPSGGDTLYADSVKGRFTISRDNSKNTLYLQMNSLRAEDTAVYYCARSFSSGPYYFDYWGQGTLVTVSS
VL: QSVLTQPPSASGTPGQRVIISCSGSSSNIGSHYVHWYQQVPGTAPKLLIYRNGQRPSGVPDRFSGFKSGTSASLAISGLRSEDEANYYCATWDDSVLFGGGTTLTVLG
Take B7: the binding entry in test [1] and in test [3] was “binds” in each case.
